Experimental data as given in paper doi:10.1101/775528.
Where two headings read alike, the source gives them in different places. These are yes or no findings as the source states them, for the method shown. Some results given as binding are weak or reduced against the parent protein; the word gives no strength.

By UniProt entry, the sequences of proteins in these tests, tags left out.
UniProt P20226: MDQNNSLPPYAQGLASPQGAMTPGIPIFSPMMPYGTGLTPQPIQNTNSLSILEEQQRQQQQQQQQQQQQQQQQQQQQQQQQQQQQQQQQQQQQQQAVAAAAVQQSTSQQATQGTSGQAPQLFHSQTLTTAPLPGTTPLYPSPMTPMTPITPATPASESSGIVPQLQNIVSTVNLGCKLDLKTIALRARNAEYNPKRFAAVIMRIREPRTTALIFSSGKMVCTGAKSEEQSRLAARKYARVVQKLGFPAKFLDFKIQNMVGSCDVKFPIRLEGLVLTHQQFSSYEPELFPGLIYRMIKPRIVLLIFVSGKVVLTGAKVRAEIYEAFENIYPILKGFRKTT
UniProt Q00403: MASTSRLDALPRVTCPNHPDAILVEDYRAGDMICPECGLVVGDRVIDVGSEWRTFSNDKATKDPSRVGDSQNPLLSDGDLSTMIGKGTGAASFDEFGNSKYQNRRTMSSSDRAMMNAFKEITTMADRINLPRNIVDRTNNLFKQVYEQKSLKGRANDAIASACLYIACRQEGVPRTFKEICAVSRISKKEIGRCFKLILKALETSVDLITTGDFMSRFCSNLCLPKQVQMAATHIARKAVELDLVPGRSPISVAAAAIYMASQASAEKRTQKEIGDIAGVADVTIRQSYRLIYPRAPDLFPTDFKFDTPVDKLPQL

Assays:
[1] = molecular target: TATA-binding protein (human) (UniProt P20226); assay: single-molecule FRET of TBP-induced bending of promoter DNA
[2] = molecular target: TATA-binding protein (human) (UniProt P20226); assay: as above; remark: listed apart in the source

Molecule | binding [1] | binding [2]
transcription factor (TF) IIB (from UniProt Q00403 1-316) | binds | –
N-terminal Bdp1 variant that encompasses residues 130-484 (domain or fragment, UniProt A6H8Y1 130-484) ATSTKEKQPCSDRYRIYKAQKLREMLKEELRKEKKQWKNKYAINESQRPPDRSKMTMRDFIYYLPDNNPMTSSLEQEKKTEKPSTPVQTREQEGKSTPNAEDNEMEEETDDGPLLVPRVKVAEDGSIILDEESLTVEVLRTKGPCVVEENDPIFERGSTTTYSSFRKNYYSKPWSNKETDMFFLAISMVGTDFSMIGQLFPHRARIEIKNKFKREEKTNGWRIDKAFQEKRPFDFDFFAHLLQKVLAEEEKRKQKSVKNHSLKEKKSTKPRKNVKVKKVACEGVNNDPDESMSSRISDTERSQKDAQTVEEESLTLSREDAEQVALEVDLNQKKRRRKKQDGANELGVNNLLENA | – | binds
